# Assay results published in PubChem BioAssay AID1508600 (Functional Genomics Laboratory (NCATS/FGL), 2020).
# The campaign covered roughly 53,000 sequences. About 3,700 (7%) were called active.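 Rule for the calls: active = gene knockdowns whose robust z-score for IL-1 alpha signal is at least 2 or at most -2, so actives lie on both sides; inactive = the rest.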 This is one part of the list.
# Assay: Components of the Cytosolic LPS Sensing Pathway: Gene Identification via Genome-wide siRNA Screen;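 note: robust z of the log signal after scaling to non-targeting control siRNA wells of the plate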
# Details: RAW264.7 macrophages, IL-1a HTRF, actives lie on both sides, screened at 100 nM (by protocol), cells primed 5 h with Pam3CSK4 first
# How it was run: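 Mouse macrophage line RAW264.7 is transfected with siRNA (100 nM final), grown 48h, primed with TLR ligand Pam3CSK4 5 h and given intracellular LipidA 24 h. IL-1a in supernatant is read by HTRF and viability by luminescence.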
row,Sequence,z-score
1,GGAUAGCCUGGAACUUAUCTT against Tnni3k,inactive: 0.239
2,GCGAAUUCGAGAAAACCUGTT against Celsr1,inactive: 0.587
3,CGAAAAUAUGGAUACUACUTT against Ippk,inactive: 0.732
4,GGAAAGAAACAAAGAAUGATT against Tmem154,inactive: 1.12
5,GGGAAAAGUGGUAAAUUAUTT against Shprh,inactive: 0.194
6,GCUCAGUUCUGUCACUUGCTT against Rs1,inactive: -0.607
7,GCCGAGAAUGCUGAGUUCATT against Hmox1,inactive: 0.0106
8,CGAGUCAUUACCAAUUACUTT against F13a1,inactive: 0.634
9,GCACUUUGUAUAUCUUUCCTT against Btd,inactive: 1.51
10,GACAAAGCCUAGAAUCAAUTT against Olfr402,inactive: -0.946
11,GGCUAUUUUGGCUUGUAAATT against Jam2,inactive: -0.504
12,GGAAGAAGAUGAAGACAUUTT against Trp53inp1,inactive: 0.976
13,GGAAAACCGAGAAAAAAUGTT against Xpa,inactive: 0.0658
14,GUGAACUCUUAUCGAUUACTT against Vmn1r46,inactive: -0.886
15,GGUGGAUUGACUAUGGCAATT against Kdm4d,inactive: 1.65
16,CCAGCAGAUAUUCUUACGGTT against Grb2,inactive: 1.19
17,CGUGAAGCAAGCCUUACCCTT against Pqlc3,inactive: -0.0951
18,GGAUGUGGAAGAGUUAAUUTT against Pakap,inactive: -0.62
19,CCGAGCACUCACUGUUUUATT against Ryr3,inactive: 0.627
20,CGAAAUACCGAUGACUGGGTT against Zfp689,inactive: -0.417
21,CGGCGACACCAUAAUUUGGTT against Il1r1,inactive: -0.0723
22,CCCAAAGCUAUCAUAUCAATT against Aff4,inactive: 0.508
23,CGGUAUCAAGUGGUACUACTT against Angpt2,inactive: 1.55

# Looked up above:
# Entry for CCGAGCACUCACUGUUUUATT against Ryr3 under z-score: inactive: 0.627
# Entry for CGGCGACACCAUAAUUUGGTT against Il1r1 under z-score: inactive: -0.0723
# Entry for GGUGGAUUGACUAUGGCAATT against Kdm4d under z-score: inactive: 1.65
# Entry for CGAGUCAUUACCAAUUACUTT against F13a1 under z-score: inactive: 0.634
# Entry for GGAUGUGGAAGAGUUAAUUTT against Pakap under z-score: inactive: -0.62
# Entry for GGAAAGAAACAAAGAAUGATT against Tmem154 under z-score: inactive: 1.12

# (cont.)

row,Sequence,z-score
1,GGCUAGCAGUUCAGUGGAATT against Pex11a,inactive: 1.06
2,GGAAACUGGUGCUACAUUATT against Usp10,inactive: 0.747
3,GGUAUAAGAAGAGAAUCCUTT against 1700128F08Rik,inactive: -0.0096
4,CGCAGAACCCUGGUUUCUATT against Trappc11,inactive: -0.232
5,GGAUGAAAAGGGACAAAGATT against Wrap53,inactive: -0.629
6,CCUACUUGGACAUGAACCGTT against Vps18,inactive: 0.126
7,AUCUGUUCCGGAGGAAUUUTT against 1700029I15Rik,active: 3.85
8,GGAGUGUAUAUUAUUGGUGTT against Olfr44,inactive: 0.621
9,CGAUCAAAAGGAUUUCAUCTT against Gjb4,inactive: 0.319
10,GCGACCUUUAGUACACGUCTT against Cmtm1,inactive: 1.89
11,GGCAUUUUGGAACCUAUAATT against Tspan1,inactive: 0.538
12,CCGUGAGAUAACUAUAGCUTT against Tsg-5,inactive: 0.368
13,GGAAAAUUCCUGUGAAUGATT against Bcor,inactive: 0.812
14,GGUGUUUUAUAUGAACUGUTT against Efcab7,inactive: 0.733
15,GGAUGAGCUAGAGAUGACCTT against Kcnip1,inactive: 0.0844
16,CCUCAGAACAAAUGAAAAUTT against Nlk,inactive: -0.62
17,GGUGCUUAAUUCCUGUCCCTT against Ggn,inactive: -0.855
18,GGACGUACAAAACUUCCUCTT against Hnrnpf,inactive: 1.06
19,GCUCAACUCAAAGCCUGUATT against Ifi27l2a,inactive: -0.987
20,CCCAGAAGAGGUUACAUUUTT against Cd200r4,inactive: 0.0312
21,CCACUGUCAGGCCAAAAACTT against Anks6,inactive: -1.16
22,GGUAGUGGCUUGAACAGGUTT against Vmn1r201,inactive: 0.115
23,GGUGGAAGCACUCAAUAAGTT against Pik3cb,inactive: -1.24

row,Sequence,z-score
1,GGAUACCUAGUUCUUAGUUTT against Mageb18,inactive: 0.151
2,GUCAUGAGAUUGAAUACAATT against Olfr569,inactive: -0.0298
3,GGAACGAUGGAAAUUGUAUTT against Rap1gds1,inactive: -1.41
4,CGGUCUGAUUAAACAAAUUTT against Dpysl4,inactive: -0.371
5,GCCAGGAUUGGAUGAAAUATT against Ace2,inactive: 1.69
6,CCUCUACUCAAAUUCUUGUTT against Ugt1a2,inactive: -0.0765
7,GGGACACUAGAAGUAGGGATT against Pramel4,inactive: 0.299
8,GGACUUCAUGGAGAGACGUTT against Ap5m1,inactive: 0.308
9,CCAGAACCGUUUGAGGAGATT against Mrpl2,inactive: -0.17
10,GCUCUUGCUACUUUUUUCUTT against Olfr823,inactive: -0.108
11,GCAUAUAAGAGAAGUGCCUTT against Parl,inactive: 0.298
12,CCAAGAGCCUCUUAAUUACTT against Syt9,inactive: -0.667
13,GCCGAAACAAUGUACAGAUTT against Rbpj,inactive: 1.03
14,GUUUUCUUGAGACAGUUAATT against Pigyl,inactive: -0.88
15,GGUGGUGUUUGUCAGCAAATT against Khk,inactive: 0.982
16,GGACUUCAGUAUCAAUUGATT against Serpinb7,inactive: 1.01
17,GGCUACGCCCACAAAAGCUTT against H1f6,active: -2.26
18,GGAAUAGUAGCUCUUACUATT against Odf2l,inactive: 1.56
19,GGUCGAAAGUCAACUCAGUTT against Tbc1d22b,inactive: -0.698
20,GGUACUUUGGAGAUUGUAATT against Rdh14,inactive: -0.462
21,GGAUAUUUGUCAAUGGACGTT against Glrx2,inactive: -1.2
22,GGAUUUACUGGGAAAGGUUTT against Vmn1r82,inactive: 0.00481
